{"source": "patent US20230135877A1", "about": "(Arizona Board of Regents on Behalf of the University of …, priority 2020, published 2023)", "experiment": "peptide made by a vendor", "settings": "whole synthesis", "note": "End groups of sequences in plain letters are not given here."}
{"sequence": "KEQCVEMYTD [10-mer]", "values": [{"measurement": "purity (crude or final not stated)", "value": 98.8, "unit": "%"}]}
{"sequence": "PAGRGKEQCVEMYTDGQWND", "values": [{"measurement": "purity (crude or final not stated)", "value": 98.0, "unit": "%"}]}
